1 molecule from publication PMC12510877 can be followed below.

Results are given in words; binding and its absence hold for the method and conditions named. Some entries that bind do so weakly or less than the wild type.

Assay [1] addresses T1, bovine PDE6 alpha subunit (bovine (endogenous in rod outer segment membranes)) (UniProt P11541).
T1 sequence: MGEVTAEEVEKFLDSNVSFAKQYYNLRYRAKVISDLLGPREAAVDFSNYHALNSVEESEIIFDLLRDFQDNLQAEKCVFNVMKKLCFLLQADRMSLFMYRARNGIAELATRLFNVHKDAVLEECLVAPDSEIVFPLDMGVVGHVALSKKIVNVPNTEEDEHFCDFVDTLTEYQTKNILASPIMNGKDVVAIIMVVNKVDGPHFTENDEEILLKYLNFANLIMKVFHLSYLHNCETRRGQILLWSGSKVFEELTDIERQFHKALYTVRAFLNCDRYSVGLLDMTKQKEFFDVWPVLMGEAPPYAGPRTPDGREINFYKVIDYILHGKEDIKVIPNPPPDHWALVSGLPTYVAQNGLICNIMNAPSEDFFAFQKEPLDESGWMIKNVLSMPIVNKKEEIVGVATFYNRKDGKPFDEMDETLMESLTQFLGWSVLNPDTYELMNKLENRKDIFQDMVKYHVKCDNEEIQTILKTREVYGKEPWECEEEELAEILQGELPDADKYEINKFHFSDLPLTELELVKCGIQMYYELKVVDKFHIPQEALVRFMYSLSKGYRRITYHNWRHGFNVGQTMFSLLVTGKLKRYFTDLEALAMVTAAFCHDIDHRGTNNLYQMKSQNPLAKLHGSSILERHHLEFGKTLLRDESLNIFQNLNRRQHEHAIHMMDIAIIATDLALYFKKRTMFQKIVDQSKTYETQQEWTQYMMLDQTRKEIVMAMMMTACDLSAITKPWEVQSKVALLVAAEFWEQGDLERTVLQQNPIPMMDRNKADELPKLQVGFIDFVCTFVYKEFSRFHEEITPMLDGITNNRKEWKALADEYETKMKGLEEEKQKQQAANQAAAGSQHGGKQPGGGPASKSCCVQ
In words: native MS; endogenous PDE6 complex isolated as a whole from rod outer segment disc membranes; 200 mM ammonium acetate, pH 7.0; the heterotetramer (30+; m/z 7250 ± 5) selected with the quadrupole and fragmented by IRMPD (8.4 W, 5 ms); subunits identified from the fragments; both purified.

Assay [2] concerns the target T2, bovine PDE6 beta subunit (bovine (endogenous in rod outer segment membranes)) (UniProt P23439).
T2 sequence (chain, C-terminal geranylgeranylation (complete)): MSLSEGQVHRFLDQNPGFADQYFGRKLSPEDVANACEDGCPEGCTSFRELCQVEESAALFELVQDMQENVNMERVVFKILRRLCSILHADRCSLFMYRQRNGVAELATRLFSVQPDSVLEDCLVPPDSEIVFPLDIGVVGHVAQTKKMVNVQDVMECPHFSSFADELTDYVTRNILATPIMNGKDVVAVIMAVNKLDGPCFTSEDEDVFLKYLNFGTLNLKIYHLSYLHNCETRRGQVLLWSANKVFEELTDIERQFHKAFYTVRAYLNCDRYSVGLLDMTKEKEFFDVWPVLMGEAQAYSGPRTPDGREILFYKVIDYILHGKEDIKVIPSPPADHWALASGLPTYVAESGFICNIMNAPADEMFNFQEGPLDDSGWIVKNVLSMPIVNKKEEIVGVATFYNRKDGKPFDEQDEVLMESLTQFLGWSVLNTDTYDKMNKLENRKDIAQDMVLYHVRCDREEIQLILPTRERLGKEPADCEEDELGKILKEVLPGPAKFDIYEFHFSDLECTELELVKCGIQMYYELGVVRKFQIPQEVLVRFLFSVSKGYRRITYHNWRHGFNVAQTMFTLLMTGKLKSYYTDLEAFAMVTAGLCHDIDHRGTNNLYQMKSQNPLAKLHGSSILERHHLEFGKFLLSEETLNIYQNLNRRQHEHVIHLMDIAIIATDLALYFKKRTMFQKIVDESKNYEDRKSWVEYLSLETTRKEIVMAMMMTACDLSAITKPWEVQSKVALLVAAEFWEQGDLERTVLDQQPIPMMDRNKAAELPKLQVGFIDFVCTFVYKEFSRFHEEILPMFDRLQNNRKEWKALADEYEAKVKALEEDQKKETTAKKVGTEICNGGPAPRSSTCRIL
Described as above.

B1: bovine PDE6 gamma subunit (protein, UniProt P04972 1-87)
chain: MNLEPPKAEIRSATRVMGGPVTPRKGPPKFKQRQTRQFKSKPPKKGVQGFGDDIPGMEGLGTDITVICPWEAFNHLELHELAQYGII
As to B1, the binding entry in assay [1] and in assay [2] was “binds” throughout.
